Results deposited as PubChem BioAssay AID1259425 (University of Nebraska Medical Center, 2018).
Here is an unselected part of about 14,000 deposited reagents. Not all columns of the deposit are shown. Not given: the time to read-out.

Assay: 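Compare each knockdown with KSR1 silencing using changes in marker transcripts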 (primary screen)
System: HCT116 human colon cancer cells
Reagent: siRNA pool against human genes, 50 nM siRNA
Detection: 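mRNA of six signature genes measured together by branched-DNA assay after 50 nM siRNA pool, blank removed, divided by geometric mean of two housekeeping genes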
Reading the numbers: BNIP3L mRNA: higher = more BNIP3L transcript after knockdown

{"gene": "SLC44A2", "BNIP3L mRNA, set 1": 0.188}
{"gene": "SRP9", "BNIP3L mRNA, set 1": 0.0669}
{"gene": "N4BP1", "BNIP3L mRNA, set 1": 0.105}
{"gene": "KCNIP3", "BNIP3L mRNA, set 1": 0.0807}
{"gene": "WDR70", "BNIP3L mRNA, set 1": 0.167}
{"gene": "SP3", "BNIP3L mRNA, set 1": 0.0579}
{"gene": "RFX1", "BNIP3L mRNA, set 1": 0.107}
{"gene": "INKA2", "BNIP3L mRNA, set 1": 0.0878}
{"gene": "OSTC", "BNIP3L mRNA, set 1": 0.111}
{"gene": "SULF1", "BNIP3L mRNA, set 1": 0.119}
{"gene": "OR8G2P", "BNIP3L mRNA, set 1": 0.0749}
{"gene": "GALNT4", "BNIP3L mRNA, set 1": 0.0824}
{"gene": "GJA5", "BNIP3L mRNA, set 1": 0.0533}
{"gene": "SFSWAP", "BNIP3L mRNA, set 1": 0.128}
{"gene": "MAL", "BNIP3L mRNA, set 1": 0.131}
{"gene": "KCNE5", "BNIP3L mRNA, set 1": 0.0548}
{"gene": "MUC3A", "BNIP3L mRNA, set 1": 0.0815}
{"gene": "FSTL4", "BNIP3L mRNA, set 1": 0.208}
{"gene": "RAPH1", "BNIP3L mRNA, set 1": 0.0903}
